# Measurements as given in the supplement of paper PMC12823440, “Inhibitors supercharge kinase turnover through native proteolytic circuits” (Nature, 2025).
# By UniProt entry, the sequences of proteins in these tests, tags left out.
# UniProt P31152, whole entry: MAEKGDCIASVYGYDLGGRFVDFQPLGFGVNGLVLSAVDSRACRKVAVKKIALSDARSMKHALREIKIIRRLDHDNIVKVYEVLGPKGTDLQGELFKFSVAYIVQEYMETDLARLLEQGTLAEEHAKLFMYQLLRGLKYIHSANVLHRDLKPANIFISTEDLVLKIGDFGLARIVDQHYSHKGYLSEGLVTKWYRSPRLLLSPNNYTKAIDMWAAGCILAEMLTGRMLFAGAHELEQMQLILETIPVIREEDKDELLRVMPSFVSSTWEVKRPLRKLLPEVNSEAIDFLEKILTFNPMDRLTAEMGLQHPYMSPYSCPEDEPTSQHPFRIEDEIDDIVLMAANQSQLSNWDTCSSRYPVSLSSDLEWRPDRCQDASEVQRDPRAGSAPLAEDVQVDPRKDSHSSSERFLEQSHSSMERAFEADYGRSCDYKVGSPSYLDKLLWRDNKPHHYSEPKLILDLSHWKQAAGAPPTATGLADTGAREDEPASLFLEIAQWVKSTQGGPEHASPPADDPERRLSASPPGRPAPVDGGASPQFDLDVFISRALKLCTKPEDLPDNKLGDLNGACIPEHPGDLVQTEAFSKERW
# Where a name gives a salt, the structure may show the parent alone. Some of the results follow. The calls rarely recur for the same compound in another form.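 Kinases were expressed as nanoluciferase fusions in K562 cells and luminescence was read every 4 h between 2 and 18 h as percent of control, DMSO set to 100% and a positive control to 0%. A time point counts as decreased when the signal drops significantly (2 sigma). The hit call is the authors' own, does not follow from the count of time points alone, and its rule is not shown.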
# Molecular target: MAPK4 (UniProt P31152)
# Experiment: number of time points (of 5) at which kinase-Nluc abundance scored as decreased, DMSO-normalised (count); higher = more persistent destabilization
# Conditions: K562; 2-18 h
row,Compound,number of time points
1,CN1C(=O)[C@@H](NC(=O)c2n[nH]c(Cc3ccccc3)n2)COc2ccccc21 (10 µM),0
2,O=C1NC(=Nc2c(Cl)cccc2Cl)S/C1=C\c1ccc2nccnc2c1 (2.5 µM),0
3,Cc1cccc(-c2[nH]c(C(C)(C)C)nc2-c2ccc3nccnc3c2)n1 (10 µM),0
4,O=C(Nc1cccc(C(F)(F)F)c1)c1cccc2cc(Oc3cc(CO)ncn3)ccc12 (10 µM),0
5,CNc1cc(Nc2cccn(-c3ccccn3)c2=O)nn2c(C(=O)N[C@@H]3C[C@@H]3F)cnc12 (2.5 µM),0
6,Cc1ccn2c(C(=O)C(=O)c3ccccc3)c(-c3ccccc3)nc2c1 (10 µM),0
7,COc1cc(N2CCOCC2)ccc1Nc1ncc(Cl)c(Nc2ccccc2NS(C)(=O)=O)n1 (2.5 µM),0
8,O=C(NC1CCOCC1)c1ccc(-c2cc(-c3c[nH]nc3-c3ccccn3)ccn2)cc1 (10 µM),0
9,O=C1NC(=O)/C(=C/c2ccc3nccc(-c4ccncc4)c3c2)S1 (10 µM),0
10,Cc1ncc(NC(=O)NC2c3ccccc3-c3ccccc32)c(-c2ccccc2)n1 (10 µM),0
11,CC(C)C[C@@H](C(=O)Nc1ccn(C[C@@H](O)CO)n1)N1CC(Oc2ccccc2Cl)=CC1=O [Dorzagliatin] (10 µM),0
12,O=C1O[C@H]([C@@H](O)CO)C(O)=C1OP(=O)(O)O [2-Phospho-L-ascorbic acid (trisodium)] (10 µM),0
13,C[C@@H]1CC(=O)c2c(ccc3c2C(=O)c2cccc(O)c2C3=O)C1 [Ochromycinone] (10 µM),0
14,Cc1c(-c2ccc(C(N)=O)c3[nH]c4cc(C(C)(C)O)ccc4c23)cccc1-n1cnc2ccccc2c1=O (2.5 µM),0
15,CC(C)(C)n1nc(Cc2ccccc2O)c2c(N)ncnc21 (10 µM),0
16,C=CC(=O)N1C(=O)CC(c2ccc(F)cc2)Sc2ccccc21 (stereo not drawn) [GSK-3β inhibitor 3] (10 µM),0
17,CCc1ccc(OCC(=O)Nc2ccc(F)c([N+](=O)[O-])c2)cc1 (10 µM),0
18,CN(C)c1nc2c(Br)c(Br)c(Br)c(Br)c2[nH]1 (10 µM),0
19,Nc1ncnc2c1c(-c1ccc(Oc3ccccc3)cc1)nn2C1CCN(CCOCCOCCOc2ccc3c(c2)CN(C2CCC(=O)NC2=O)C3=O)CC1 (centres undefined) (2.5 µM),0
20,Cc1cnc(NC2CCOCC2)nc1-n1cnc(C(=O)N[C@H](CN)c2cc(F)cc(Cl)c2)c1 (10 µM),0

# Structural class: the compounds so far containing a tert-butyl group (2)
row,Compound,number of time points
3,Cc1cccc(-c2[nH]c(C(C)(C)C)nc2-c2ccc3nccnc3c2)n1 (10 µM),0
15,CC(C)(C)n1nc(Cc2ccccc2O)c2c(N)ncnc21 (10 µM),0

# Following part.

row,Compound,number of time points
1,FC(F)(F)c1ccc(/C=C/c2nc(COc3ccc(CCCCn4ccnn4)cc3)co2)cc1 [Mubritinib] (10 µM),0
2,Cc1cc2sc(NC(=O)Cc3ccccc3)nc2cc1Cl (10 µM),0
3,O=C(CNc1cccc(Cl)c1)NC1CCCN(c2ncnc3[nH]ccc23)C1 (centres undefined) (10 µM),0
4,Oc1ccc(/C=C/c2cc(O)cc(F)c2)cc1 [Resveratrol analog 1] (10 µM),0
5,CC/C(=N\NC(=O)c1ccnc(NCCCN2CCOCC2)c1)c1ccc(Cl)cc1O (2.5 µM),0
6,O[C@@H]1CO[C@H]2[C@@H]1OC[C@H]2Oc1nc2nc(-c3ccc(-c4ccccc4)cc3)c(Cl)cc2[nH]1 (10 µM),0
7,Nc1c(C(=O)NCc2ccc(C(=O)NCCCC3CCCCC3)cc2)cnn1-c1ccccc1 (2.5 µM),0
8,Cc1ccc(C(=O)Nc2sc(Nc3ccccc3)nc2C(N)=O)cc1 (10 µM),0
9,COc1cc(N(C)CCN(C)C)c(N)cc1Nc1nccc(-c2cn(C)c3ccccc23)n1 [Mutated EGFR-IN-1] (10 µM),0
10,CCN(CC)c1cc2oc(=O)c(-c3nc4ccccc4o3)cc2cc1C (2.5 µM),0
11,Cn1cc(-c2cnc3cnn(S(=O)(=O)c4cnc5ccc(-c6cnn(C)c6)cn45)c3c2)cn1 [Glumetinib] (10 µM),0
12,Cc1ccc(NC(=O)c2ccnc(C(F)(F)F)c2)cc1-c1cc(OCCO)nc(N2CCOCC2)c1 (10 µM),0
13,C=CC(=O)Nc1cccc(-c2cccc3cnc(Nc4ccc(N5CCN(CCO)CC5)c(F)c4F)nc23)c1 [Olafertinib] (2.5 µM),0
14,CC(C)(C[C@H](N)C(=O)O)C(F)F [NV-5138 (hydrochloride)] (10 µM),0
15,Cc1cc(C)nc(NS(=O)(=O)c2ccc(NC(=S)NC(=O)COc3ccc(Br)cc3Cl)cc2)n1 (2.5 µM),0
16,CC[C@@](C)(Nc1ccnc(-c2c[nH]c3ncccc23)n1)C(=O)NCC(F)(F)F [Decernotinib] (10 µM),0
17,COc1cc2ncnc(-n3nc(-c4ccccn4)nc3N)c2cc1OC (10 µM),0
18,O=C1/C(=C\c2ccc(Cl)cc2)C=C(c2ccccc2)N1c1ccc(O)cc1 (2.5 µM),0
19,Oc1ccc(/C=C/c2cc(O)cc(O)c2)cc1 [Resveratrol] (10 µM),0
